This note sets out measurements from article PMC10509265.

Sequences of proteins named here, by UniProt entry; tags and fusion partners are left off. A change or cut given only in a name is not applied to a line headed by its entry. A line that says so, or that is headed by a name, gives the form on record, which may keep a tag or linker.
UniProt Q9Z329: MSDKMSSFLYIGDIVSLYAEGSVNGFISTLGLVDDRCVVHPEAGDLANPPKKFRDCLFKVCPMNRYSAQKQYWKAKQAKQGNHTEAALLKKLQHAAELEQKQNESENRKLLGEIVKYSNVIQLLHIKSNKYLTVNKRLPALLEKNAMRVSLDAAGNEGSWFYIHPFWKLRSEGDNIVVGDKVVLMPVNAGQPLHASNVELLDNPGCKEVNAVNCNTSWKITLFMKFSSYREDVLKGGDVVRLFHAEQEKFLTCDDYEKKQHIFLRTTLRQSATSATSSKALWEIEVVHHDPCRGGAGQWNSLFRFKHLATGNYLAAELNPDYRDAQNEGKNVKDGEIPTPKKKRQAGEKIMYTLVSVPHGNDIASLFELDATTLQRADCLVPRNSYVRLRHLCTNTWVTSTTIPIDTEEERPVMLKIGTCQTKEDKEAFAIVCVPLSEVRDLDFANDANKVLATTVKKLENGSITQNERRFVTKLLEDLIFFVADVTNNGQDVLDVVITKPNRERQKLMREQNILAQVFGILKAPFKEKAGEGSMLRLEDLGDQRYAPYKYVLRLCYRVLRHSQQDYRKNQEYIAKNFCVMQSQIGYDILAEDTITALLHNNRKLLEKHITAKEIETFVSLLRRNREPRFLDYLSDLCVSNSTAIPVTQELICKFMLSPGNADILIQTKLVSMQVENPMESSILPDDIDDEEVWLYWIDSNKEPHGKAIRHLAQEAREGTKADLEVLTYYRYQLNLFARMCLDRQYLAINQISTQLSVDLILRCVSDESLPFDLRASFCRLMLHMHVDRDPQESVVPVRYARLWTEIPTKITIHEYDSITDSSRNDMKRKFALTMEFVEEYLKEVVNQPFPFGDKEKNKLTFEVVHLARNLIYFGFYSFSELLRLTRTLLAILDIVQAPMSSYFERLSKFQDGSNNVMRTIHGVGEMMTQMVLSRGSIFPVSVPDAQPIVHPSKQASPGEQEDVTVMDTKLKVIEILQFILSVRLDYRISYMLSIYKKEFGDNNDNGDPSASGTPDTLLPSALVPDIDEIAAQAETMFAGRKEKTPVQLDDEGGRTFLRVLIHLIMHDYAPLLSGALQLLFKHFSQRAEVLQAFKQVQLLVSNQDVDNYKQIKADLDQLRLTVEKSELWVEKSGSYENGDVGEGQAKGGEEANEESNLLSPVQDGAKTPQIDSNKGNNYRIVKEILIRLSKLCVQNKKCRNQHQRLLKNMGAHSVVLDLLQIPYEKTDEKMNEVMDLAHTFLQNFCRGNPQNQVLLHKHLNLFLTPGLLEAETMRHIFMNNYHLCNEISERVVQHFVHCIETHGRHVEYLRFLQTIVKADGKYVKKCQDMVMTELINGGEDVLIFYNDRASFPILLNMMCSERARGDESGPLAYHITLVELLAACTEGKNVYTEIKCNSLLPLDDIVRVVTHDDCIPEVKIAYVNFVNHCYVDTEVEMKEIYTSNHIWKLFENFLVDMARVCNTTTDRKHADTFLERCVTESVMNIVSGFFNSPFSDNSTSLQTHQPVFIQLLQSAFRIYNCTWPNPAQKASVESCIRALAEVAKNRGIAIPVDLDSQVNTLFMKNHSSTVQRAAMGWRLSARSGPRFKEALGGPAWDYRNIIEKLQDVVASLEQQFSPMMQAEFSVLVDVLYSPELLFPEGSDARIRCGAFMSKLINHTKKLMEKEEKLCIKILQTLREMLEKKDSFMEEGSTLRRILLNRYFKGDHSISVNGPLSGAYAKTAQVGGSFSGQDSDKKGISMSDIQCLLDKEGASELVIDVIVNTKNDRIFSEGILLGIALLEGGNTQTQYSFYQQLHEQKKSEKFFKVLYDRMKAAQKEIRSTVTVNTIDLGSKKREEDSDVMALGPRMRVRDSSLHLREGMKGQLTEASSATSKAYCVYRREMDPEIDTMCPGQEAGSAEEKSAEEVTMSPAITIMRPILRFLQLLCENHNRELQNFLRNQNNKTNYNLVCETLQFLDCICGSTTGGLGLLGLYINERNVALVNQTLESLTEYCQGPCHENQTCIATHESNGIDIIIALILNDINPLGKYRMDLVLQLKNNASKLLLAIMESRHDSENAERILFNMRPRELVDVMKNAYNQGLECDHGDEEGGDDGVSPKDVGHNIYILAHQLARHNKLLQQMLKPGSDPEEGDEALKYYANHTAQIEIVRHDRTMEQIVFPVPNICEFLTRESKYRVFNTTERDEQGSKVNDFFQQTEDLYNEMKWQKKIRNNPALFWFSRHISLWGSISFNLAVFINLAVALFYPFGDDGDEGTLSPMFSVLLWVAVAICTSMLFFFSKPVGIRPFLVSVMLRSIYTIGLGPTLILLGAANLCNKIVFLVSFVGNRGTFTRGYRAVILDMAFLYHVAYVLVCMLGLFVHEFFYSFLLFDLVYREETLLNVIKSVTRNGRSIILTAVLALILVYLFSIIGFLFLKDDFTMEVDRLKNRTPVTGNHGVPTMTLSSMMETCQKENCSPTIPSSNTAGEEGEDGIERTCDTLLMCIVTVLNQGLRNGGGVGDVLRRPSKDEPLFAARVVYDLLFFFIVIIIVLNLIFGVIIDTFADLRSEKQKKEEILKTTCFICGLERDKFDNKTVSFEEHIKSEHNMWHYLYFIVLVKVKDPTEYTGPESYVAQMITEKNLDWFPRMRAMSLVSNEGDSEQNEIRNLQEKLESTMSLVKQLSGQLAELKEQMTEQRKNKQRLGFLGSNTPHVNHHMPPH
Bcl-xL S14A (endogenous, homozygous S14A knock-in mouse heart) (Q64373-1, form named): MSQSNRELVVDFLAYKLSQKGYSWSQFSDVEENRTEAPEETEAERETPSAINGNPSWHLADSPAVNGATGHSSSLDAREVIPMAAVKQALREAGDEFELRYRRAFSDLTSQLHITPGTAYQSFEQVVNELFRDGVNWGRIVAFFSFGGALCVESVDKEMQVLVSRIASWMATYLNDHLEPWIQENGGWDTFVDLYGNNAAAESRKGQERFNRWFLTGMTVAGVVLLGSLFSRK

Results are given in words; binding and its absence hold for the method and conditions named. Binding seen in cells or lysates may run through a third protein. Some binding calls cover weakened binding; strength is not graded here.

In the test the target is IP3R-type 2 (endogenous, mouse heart) (mouse (endogenous in heart)) (UniProt Q9Z329). The experiment in a line: co-IP; anti-IP3R type 2 antibody cross-linked to protein A/G agarose; heart lysates of WT and S14A knock-in mice 1 day after TAC or sham; overnight at 4 °C; immunoblot.

Turning to “Bcl-xL (endogenous, wild type mouse heart) (from UniProt Q64373-1 1-233)”, the binding result is “binds”. Regarding “Bcl-xL S14A (endogenous, homozygous S14A knock-in mouse heart) (from UniProt Q64373-1 1-233)”, the binding entry is listed as “binds”.
